This data set in a line: general procedure: Fmoc solid-phase peptide synthesis; Sasrin resin; HOBT, TBTU, DIEA. The note with it: whole synthesis, scale 0.69 mmol, trifluoroacetate.

With c(Ary(Pmc)-Gly-Asp(OtBu)-D-Phe-Aad), the isolated mass is on record as 187 mg.

For the origin of these results see patent publication US7705012B2 (priority 2004, dated 2010).
